Data: publication doi:10.1101/2025.10.21.683757
No constants are given. Whether binding was seen depends on the method and setting. Binding seen in cells or lysates may run through a third protein. Some binding calls cover weakened binding; strength is not graded here. For part of these data: Sequences can lack the tags named with a protein.

The chains behind the UniProt entries cited, without tags or fusion partners.
UniProt P17844: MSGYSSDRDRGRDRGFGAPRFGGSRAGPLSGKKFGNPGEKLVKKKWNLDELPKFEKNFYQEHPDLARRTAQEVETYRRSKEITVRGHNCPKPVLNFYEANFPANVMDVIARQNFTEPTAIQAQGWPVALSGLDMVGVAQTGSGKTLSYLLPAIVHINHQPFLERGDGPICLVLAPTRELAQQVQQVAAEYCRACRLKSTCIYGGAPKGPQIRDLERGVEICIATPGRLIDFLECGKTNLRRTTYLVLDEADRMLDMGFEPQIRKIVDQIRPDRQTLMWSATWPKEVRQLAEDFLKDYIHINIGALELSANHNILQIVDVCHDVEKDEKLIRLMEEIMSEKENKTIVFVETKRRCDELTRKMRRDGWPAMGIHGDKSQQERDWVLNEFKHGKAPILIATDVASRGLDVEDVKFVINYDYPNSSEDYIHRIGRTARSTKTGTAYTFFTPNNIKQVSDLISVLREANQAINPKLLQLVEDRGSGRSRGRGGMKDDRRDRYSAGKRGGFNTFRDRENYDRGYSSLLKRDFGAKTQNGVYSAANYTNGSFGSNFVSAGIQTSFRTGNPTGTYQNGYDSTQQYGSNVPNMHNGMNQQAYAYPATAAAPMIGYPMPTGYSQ
UniProt P40763: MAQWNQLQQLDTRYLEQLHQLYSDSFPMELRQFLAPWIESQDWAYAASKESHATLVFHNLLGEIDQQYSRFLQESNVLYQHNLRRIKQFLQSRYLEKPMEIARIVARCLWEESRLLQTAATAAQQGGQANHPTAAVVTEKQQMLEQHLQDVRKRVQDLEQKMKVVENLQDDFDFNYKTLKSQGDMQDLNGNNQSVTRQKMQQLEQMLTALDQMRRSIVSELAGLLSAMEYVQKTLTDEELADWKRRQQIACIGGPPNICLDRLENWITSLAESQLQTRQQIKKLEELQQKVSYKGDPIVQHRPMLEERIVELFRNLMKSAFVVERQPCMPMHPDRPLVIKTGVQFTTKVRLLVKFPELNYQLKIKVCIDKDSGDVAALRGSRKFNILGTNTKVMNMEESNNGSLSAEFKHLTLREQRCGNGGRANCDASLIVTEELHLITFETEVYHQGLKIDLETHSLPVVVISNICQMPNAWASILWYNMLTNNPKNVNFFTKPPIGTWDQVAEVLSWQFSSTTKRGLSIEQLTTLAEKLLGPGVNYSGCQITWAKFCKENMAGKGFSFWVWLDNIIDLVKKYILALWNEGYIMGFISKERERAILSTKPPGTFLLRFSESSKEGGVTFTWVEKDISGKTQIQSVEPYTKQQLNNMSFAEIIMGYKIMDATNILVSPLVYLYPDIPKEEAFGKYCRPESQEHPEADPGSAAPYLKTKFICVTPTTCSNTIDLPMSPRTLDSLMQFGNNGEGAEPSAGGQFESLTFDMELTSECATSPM
UniProt Q7Z460: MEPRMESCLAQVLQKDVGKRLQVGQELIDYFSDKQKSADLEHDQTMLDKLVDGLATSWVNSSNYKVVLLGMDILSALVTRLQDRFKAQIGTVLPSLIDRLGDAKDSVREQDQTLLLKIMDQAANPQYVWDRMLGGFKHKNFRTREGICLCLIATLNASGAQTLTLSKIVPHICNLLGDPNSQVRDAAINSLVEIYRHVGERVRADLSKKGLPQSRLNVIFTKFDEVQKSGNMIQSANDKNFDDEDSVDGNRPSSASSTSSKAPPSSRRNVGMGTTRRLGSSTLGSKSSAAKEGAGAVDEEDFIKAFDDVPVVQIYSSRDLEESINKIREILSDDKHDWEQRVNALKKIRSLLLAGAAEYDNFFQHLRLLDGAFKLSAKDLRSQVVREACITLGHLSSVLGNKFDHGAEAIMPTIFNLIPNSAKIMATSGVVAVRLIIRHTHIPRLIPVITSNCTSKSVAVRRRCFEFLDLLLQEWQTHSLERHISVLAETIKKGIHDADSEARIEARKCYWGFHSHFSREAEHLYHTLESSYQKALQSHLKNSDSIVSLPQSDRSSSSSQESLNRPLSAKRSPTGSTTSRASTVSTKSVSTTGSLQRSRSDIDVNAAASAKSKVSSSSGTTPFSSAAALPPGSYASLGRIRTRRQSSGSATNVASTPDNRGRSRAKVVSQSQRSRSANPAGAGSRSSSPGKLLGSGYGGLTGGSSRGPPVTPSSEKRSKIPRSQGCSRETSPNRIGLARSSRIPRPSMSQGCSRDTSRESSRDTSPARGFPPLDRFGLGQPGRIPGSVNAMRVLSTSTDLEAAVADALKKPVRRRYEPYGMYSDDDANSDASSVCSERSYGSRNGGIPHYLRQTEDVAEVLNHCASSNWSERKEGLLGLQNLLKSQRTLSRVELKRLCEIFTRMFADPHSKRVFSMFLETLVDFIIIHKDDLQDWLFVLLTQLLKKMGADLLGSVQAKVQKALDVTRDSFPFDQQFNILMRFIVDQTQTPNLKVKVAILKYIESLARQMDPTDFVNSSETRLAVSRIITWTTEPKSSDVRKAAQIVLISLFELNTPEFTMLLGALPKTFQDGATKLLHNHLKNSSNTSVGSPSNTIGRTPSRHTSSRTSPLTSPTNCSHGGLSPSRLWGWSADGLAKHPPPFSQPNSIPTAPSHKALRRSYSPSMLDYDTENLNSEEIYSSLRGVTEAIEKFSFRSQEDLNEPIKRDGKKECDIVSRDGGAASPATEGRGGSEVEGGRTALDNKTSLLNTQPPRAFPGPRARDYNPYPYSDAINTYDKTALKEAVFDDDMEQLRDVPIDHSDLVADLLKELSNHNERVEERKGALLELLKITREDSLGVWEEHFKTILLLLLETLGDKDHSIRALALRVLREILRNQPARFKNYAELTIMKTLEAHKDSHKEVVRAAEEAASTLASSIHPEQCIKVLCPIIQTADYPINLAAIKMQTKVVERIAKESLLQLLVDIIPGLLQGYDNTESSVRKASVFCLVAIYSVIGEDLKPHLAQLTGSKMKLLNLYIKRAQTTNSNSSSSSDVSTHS
UniProt Q8TEQ6: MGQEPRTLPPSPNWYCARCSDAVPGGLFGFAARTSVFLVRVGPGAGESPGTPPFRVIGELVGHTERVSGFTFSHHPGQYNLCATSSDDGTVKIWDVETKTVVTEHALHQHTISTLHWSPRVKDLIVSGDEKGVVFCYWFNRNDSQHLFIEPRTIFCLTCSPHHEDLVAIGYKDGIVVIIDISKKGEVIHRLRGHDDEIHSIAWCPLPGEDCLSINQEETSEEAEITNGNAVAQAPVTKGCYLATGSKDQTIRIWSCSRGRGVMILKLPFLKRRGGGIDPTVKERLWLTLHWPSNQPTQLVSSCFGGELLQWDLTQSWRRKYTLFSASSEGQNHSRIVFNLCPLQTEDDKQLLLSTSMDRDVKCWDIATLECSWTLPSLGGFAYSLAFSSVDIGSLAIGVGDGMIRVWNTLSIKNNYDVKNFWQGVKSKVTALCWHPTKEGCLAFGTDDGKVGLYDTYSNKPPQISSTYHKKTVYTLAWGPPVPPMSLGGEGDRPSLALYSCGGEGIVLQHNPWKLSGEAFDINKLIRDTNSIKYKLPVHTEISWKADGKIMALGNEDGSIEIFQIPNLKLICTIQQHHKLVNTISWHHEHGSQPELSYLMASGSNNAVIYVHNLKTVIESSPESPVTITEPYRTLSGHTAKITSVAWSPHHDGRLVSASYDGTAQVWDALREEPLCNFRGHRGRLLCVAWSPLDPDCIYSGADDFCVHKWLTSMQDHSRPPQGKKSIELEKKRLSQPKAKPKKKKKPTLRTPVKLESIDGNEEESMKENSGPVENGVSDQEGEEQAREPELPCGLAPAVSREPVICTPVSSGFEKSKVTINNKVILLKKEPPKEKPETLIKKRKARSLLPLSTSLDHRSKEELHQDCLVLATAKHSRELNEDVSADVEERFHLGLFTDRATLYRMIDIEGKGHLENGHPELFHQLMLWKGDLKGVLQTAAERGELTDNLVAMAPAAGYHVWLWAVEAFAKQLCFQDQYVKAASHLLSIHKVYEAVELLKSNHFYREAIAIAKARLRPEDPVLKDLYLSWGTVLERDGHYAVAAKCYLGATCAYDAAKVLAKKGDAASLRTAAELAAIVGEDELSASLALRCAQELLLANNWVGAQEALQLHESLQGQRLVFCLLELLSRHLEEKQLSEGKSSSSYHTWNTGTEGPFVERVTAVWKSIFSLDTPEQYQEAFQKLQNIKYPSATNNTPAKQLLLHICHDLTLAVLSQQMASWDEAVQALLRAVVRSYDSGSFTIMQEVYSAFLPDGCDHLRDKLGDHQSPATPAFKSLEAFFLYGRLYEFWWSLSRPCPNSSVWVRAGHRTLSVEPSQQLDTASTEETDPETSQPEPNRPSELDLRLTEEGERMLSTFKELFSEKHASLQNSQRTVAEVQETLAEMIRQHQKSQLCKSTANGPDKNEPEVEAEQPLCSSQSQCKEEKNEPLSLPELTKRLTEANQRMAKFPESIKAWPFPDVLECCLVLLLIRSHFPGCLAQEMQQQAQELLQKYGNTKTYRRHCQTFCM
UniProt Q7L576: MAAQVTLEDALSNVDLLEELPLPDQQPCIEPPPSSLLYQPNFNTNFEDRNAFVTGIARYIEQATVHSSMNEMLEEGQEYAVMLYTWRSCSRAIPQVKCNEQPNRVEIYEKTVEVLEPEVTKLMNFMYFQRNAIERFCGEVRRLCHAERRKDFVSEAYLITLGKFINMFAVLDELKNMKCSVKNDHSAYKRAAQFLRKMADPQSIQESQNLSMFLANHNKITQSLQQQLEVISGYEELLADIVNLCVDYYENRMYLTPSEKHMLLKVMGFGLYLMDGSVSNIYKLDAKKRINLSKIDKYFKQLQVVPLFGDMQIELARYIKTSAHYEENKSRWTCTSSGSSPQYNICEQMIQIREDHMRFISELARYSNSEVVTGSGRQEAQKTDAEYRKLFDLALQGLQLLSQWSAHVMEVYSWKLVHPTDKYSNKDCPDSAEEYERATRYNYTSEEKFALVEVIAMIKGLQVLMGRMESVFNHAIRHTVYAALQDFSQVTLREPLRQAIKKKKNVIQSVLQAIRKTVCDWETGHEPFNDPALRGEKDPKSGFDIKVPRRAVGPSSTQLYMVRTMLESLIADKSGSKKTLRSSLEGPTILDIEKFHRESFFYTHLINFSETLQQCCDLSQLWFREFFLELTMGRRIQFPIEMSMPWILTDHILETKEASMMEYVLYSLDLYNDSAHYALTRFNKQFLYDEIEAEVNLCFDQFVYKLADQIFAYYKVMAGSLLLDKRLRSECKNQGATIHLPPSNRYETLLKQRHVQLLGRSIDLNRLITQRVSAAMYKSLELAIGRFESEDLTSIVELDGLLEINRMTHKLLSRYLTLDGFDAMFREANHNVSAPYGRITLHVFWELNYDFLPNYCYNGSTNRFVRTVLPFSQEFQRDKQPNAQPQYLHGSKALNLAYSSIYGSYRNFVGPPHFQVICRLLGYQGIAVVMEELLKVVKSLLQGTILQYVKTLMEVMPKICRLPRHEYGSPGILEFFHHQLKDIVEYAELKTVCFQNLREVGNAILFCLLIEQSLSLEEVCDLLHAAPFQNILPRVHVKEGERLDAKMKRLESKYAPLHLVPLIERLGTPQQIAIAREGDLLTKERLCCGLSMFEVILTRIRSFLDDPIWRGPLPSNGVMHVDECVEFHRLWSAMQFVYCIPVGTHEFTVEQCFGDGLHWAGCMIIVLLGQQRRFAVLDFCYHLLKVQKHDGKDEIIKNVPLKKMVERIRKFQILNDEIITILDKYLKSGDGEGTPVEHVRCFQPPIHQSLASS
UniProt P04406: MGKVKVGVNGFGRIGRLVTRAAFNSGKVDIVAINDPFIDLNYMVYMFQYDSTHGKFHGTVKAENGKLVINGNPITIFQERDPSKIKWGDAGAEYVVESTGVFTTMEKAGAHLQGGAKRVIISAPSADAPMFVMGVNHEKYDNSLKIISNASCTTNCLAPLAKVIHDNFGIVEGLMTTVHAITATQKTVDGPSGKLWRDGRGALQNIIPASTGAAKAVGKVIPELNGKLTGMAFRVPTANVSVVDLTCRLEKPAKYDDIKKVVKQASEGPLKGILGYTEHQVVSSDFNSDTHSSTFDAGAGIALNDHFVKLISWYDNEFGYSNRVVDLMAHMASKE

T1: JAKMIP1 C-terminus-mCherry fusion protein (expressed in SH-SY5Y cells) (UniProt Q96N16)
T1 sequence: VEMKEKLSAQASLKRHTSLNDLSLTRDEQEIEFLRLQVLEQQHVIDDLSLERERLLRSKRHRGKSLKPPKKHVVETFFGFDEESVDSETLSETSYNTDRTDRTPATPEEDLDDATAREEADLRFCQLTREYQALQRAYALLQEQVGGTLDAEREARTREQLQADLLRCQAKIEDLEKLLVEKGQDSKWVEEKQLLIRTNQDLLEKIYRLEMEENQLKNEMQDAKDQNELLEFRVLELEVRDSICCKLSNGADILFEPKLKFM

T2: JAKMIP1 N-terminus-mCherry fusion protein (expressed in SH-SY5Y cells) (UniProt Q96N16)
T2 sequence: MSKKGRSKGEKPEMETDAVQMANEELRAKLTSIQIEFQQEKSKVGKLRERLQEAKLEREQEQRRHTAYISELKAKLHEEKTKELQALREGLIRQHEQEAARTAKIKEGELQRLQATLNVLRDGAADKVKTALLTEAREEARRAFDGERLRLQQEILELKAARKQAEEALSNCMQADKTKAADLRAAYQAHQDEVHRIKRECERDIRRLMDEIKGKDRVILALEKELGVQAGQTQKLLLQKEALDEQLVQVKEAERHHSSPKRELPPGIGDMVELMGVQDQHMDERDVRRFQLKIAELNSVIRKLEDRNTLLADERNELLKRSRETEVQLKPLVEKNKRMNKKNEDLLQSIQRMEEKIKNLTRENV

T3: JAKMIP1 N-terminus-mCherry fusion protein (expressed in HEK-293 cells) (UniProt Q96N16)
T3 sequence: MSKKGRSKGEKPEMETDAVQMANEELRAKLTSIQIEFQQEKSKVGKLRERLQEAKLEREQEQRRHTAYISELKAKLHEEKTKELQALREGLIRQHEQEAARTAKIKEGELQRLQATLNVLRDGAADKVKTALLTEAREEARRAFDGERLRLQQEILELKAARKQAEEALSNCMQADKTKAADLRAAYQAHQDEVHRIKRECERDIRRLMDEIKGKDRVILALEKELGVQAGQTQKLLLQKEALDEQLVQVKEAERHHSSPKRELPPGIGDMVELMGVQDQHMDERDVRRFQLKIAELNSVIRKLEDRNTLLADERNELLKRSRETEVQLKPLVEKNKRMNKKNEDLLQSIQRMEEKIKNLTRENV

T4: JAKMIP1 C-terminus-mCherry fusion protein (expressed in HEK-293 cells) (UniProt Q96N16)
T4 sequence: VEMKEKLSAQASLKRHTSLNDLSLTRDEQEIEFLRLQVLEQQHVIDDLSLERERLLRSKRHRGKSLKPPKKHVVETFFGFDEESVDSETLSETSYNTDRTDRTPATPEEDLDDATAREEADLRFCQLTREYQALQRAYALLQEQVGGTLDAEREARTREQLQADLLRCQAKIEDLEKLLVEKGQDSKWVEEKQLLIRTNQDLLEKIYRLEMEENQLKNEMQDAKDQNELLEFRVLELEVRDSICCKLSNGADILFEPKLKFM

B1: HDAC8 (protein, UniProt Q9BY41 1-377)
chain: MEEPEEPADSGQSLVPVYIYSPEYVSMCDSLAKIPKRASMVHSLIEAYALHKQMRIVKPKVASMEEMATFHTDAYLQHLQKVSQEGDDDHPDSIEYGLGYDCPATEGIFDYAAAIGGATITAAQCLIDGMCKVAINWSGGWHHAKKDEASGFCYLNDAVLGILRLRRKFERILYVDLDLHHGDGVEDAFSFTSKVMTVSLHKFSPGFFPGTGDVSDVGLGKGRYYSVNVPIQDGIQDEKYYQICESVLKEVYQAFNPKAVVLQLGADTIAGDPMCSFNMTPVGIGKCLKYILQWQLATLILGGGGYNLANTARCWTYLTGVILGKTLSSEIPDHEFFTAYGPDYVLEITPSCRPDRNEPHRIQQILNYIKGNLKHVV
B2: DBN1 (protein, UniProt Q16643 1-649)
chain: MAGVSFSGHRLELLAAYEEVIREESAADWALYTYEDGSDDLKLAASGEGGLQELSGHFENQKVMYGFCSVKDSQAALPKYVLINWVGEDVPDARKCACASHVAKVAEFFQGVDVIVNASSVEDIDAGAIGQRLSNGLARLSSPVLHRLRLREDENAEPVGTTYQKTDAAVEMKRINREQFWEQAKKEEELRKEEERKKALDERLRFEQERMEQERQEQEERERRYREREQQIEEHRRKQQTLEAEEAKRRLKEQSIFGDHRDEEEETHMKKSESEVEEAAAIIAQRPDNPREFFKQQERVASASAGSCDVPSPFNHRPGSHLDSHRRMAPTPIPTRSPSDSSTASTPVAEQIERALDEVTSSQPPPLPPPPPPAQETQEPSPILDSEETRAAAPQAWAGPMEEPPQAQAPPRGPGSPAEDLMFMESAEQAVLAAPVEPATADATEIHDAADTIETDTATADTTVANNVPPAATSLIDLWPGNGEGASTLQGEPRAPTPPSGTEVTLAEVPLLDEVAPEPLLPAGEGCATLLNFDELPEPPATFCDPEEVEGESLAAPQTPTLPSALEELEQEQEPEPHLLTNGETTQKEGTQASEGYFSQSQEEEFAQSEELCAKAPPPVFYNKPPEIDITCWDADPVPEEEEGFEGGD

Legend:
Assay in all cases: co-IP
[1] = biological target: full-length JAKMIP1-mCherry fusion protein (expressed in SH-SY5Y cells) (UniProt Q96N16)
[2] = biological target: T1, JAKMIP1 C-terminus-mCherry fusion protein (expressed in SH-SY5Y cells)
[3] = biological target: T2, JAKMIP1 N-terminus-mCherry fusion protein (expressed in SH-SY5Y cells)
[4] = biological target: full-length JAKMIP1-mCherry fusion protein (expressed in HEK-293 cells) (UniProt Q96N16)
[5] = biological target: T3, JAKMIP1 N-terminus-mCherry fusion protein (expressed in HEK-293 cells)
[6] = biological target: T4, JAKMIP1 C-terminus-mCherry fusion protein (expressed in HEK-293 cells)

Molecule | binding [1] | binding [2] | binding [3] | binding [4] | binding [5] | binding [6]
DDX5 (from UniProt P17844 1-614) | binds | binds | no binding | – | – | –
Signal Transducer and Activator of Transcription 3 (from UniProt P40763 1-770) | no binding | no binding | no binding | – | – | –
HDAC6 (from UniProt Q9UBN7 1-1215) | binds | binds | binds | – | – | –
CLASP1 (from UniProt Q7Z460 1-1538) | binds | binds | no binding | – | – | –
GEMIN5 (from UniProt Q8TEQ6 1-1508) | binds | binds | no binding | – | – | –
Cytoplasmic FMRP-Interacting Protein 1 (from UniProt Q7L576 1-1253) | binds | no binding | no binding | – | – | –
GAPDH (from UniProt P04406 1-335) | no binding | no binding | no binding | – | – | –
EYFP-tagged JAKMIP1 construct (from UniProt Q96N16-1 1-626) | – | – | – | binds | binds | binds
B1 | binds | binds | binds | – | – | –
B2 | binds | binds | binds | – | – | –
